PubChem BioAssay AID1508587, Peter MacCallum Cancer Centre – 2020
Screen: 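Retest of knockdowns boosting BRAF inhibitor action on lactate release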 (follow-up of hits). Cell system: human WM266.4 melanoma cells with a BRAF V600 mutation. Reagent: single siRNA against human genes, 25 nM. Timing: 96 h. Challenge: vemurafenib 300 nM (about IC25), given 48 h after transfection for 48 h. Read-out: 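Per-cell lactate from absorbance divided by DAPI nucleus counts, compared with and without vemurafenib, relative to non-targeting siRNA, mean of 2 replicates; nuclear counts also give cell number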. Scale: lactate per cell, drug vs no drug: higher = less drug-induced drop in lactate per cell; lactate per cell with vemurafenib: higher = more lactate per cell under drug. Active means: 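a duplex is active when its lactate-per-cell ratio with versus without drug falls under 0.55, i.e. 2 SD below non-targeting; a gene is confirmed if 2 or more of 4 duplexes pass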.
The whole screen tested about 1,600 reagents; below is a part drawn at random. Over the whole deposit, 623 (39%) are marked active. 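Calls are for each duplex; lactate ratios contain extreme outliers.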 Unmarked entries are inactive. The numbers tell different reagents against one gene apart. Further read-outs or replicates are left out here.

Against RMDN1 #1 the deposit lists lactate per cell, drug vs no drug 1.16; lactate per cell with vemurafenib 3.05. Silencing of RMDN1 #2 came out at: lactate per cell, drug vs no drug 0.74; lactate per cell with vemurafenib 1.17. Against RMDN1 #3 the deposit lists lactate per cell, drug vs no drug 0.44 (active); lactate per cell with vemurafenib 0.42. Depletion of RMDN1 #4 gave: lactate per cell, drug vs no drug 0.62; lactate per cell with vemurafenib 0.96. CREBRF #1 scored lactate per cell, drug vs no drug 0.6; lactate per cell with vemurafenib 1.54. After knock-down of CREBRF #2, the screen gave lactate per cell, drug vs no drug 0.48 (active); lactate per cell with vemurafenib 0.82.

For CREBRF #3, the entry reads lactate per cell, drug vs no drug 0.6; lactate per cell with vemurafenib 1.06. Depletion of CREBRF #4 resulted in: lactate per cell, drug vs no drug 0.76; lactate per cell with vemurafenib 3.6. Silencing of TP53RK #1 resulted in: lactate per cell, drug vs no drug 0.5 (active); lactate per cell with vemurafenib 2.12. TP53RK #2 gave lactate per cell, drug vs no drug 0.54 (active); lactate per cell with vemurafenib 0.87. Depletion of TP53RK #3 gave: lactate per cell, drug vs no drug 0.6; lactate per cell with vemurafenib 1.35. Depletion of TP53RK #4 came out at: lactate per cell, drug vs no drug 0.52 (active); lactate per cell with vemurafenib 1.27.

With knock-down of QPRT #1 the results were lactate per cell, drug vs no drug 0.4 (active); lactate per cell with vemurafenib 0.56. Against QPRT #2, the entry reads lactate per cell, drug vs no drug 0.55; lactate per cell with vemurafenib 1.56. After knock-down of QPRT #3, the record shows lactate per cell, drug vs no drug 0.58; lactate per cell with vemurafenib 1.25. For QPRT #4, the values are lactate per cell, drug vs no drug 0.64; lactate per cell with vemurafenib 1.36. Depletion of UHMK1 #1 gave: lactate per cell, drug vs no drug 0.38 (active); lactate per cell with vemurafenib 0.72. UHMK1 #2 showed lactate per cell, drug vs no drug 0.47 (active); lactate per cell with vemurafenib 0.67.

Against UHMK1 #3 the deposit lists lactate per cell, drug vs no drug 0.51 (active); lactate per cell with vemurafenib 0.66. Depletion of UHMK1 #4 resulted in: lactate per cell, drug vs no drug 0.52 (active); lactate per cell with vemurafenib 0.99.

2 of these entries, reformatted.
| gene symbol | reagent | lactate per cell, drug vs no drug | lactate per cell with vemurafenib |
| --- | --- | --- | --- |
| UHMK1 | 1 | 0.38 (active) | 0.72 |
| UHMK1 | 2 | 0.47 (active) | 0.67 |
